From US5750531A, “Pyrimidine derivatives and processes for the preparation thereof” (Yuhan Corporation, priority 1994, dated 1998)

Test system: proton pump(H^+ /K^+ ATPase)
Experiment: Inhibition of proton pump(H^+ /K^+ ATPase) activity
Type: biochemical
Conditions: IC50 omeprazole / IC50 test compound
Procedure: Test 1: Inhibition of proton pump(H^+ /K^+ ATPase) activity
A proton pump enzyme source was prepared by the same method as in Experiment 1-1 of WO 94/14795. Further, the inhibitory effect of proton pump activity was measured by the same method as in Experiment 1-2 of WO 94/14795.
Namely, the proton pump activity stimulated by Mg^++ was used as a negative comparative group, and the activity stimulated by Mg^++ and K^+ was used as a positive comparative group. The comparative compound was omeprazole.
Test tubes were divided into 4 groups: Group 1 as negative comparative group(n=3), Group 2 as positive comparative group(n=3), Group 3(n=5×2) to be administered with the compound of the present invention and Group 4(n=5×2) to be administered with the comparative compound.
The inhibitory effects of Groups 3 and 4 on proton pump activity were measured by employing the compound prepared in Example and omeperazole, respectively, each of which was dissolved in dimethylsulfoxide at 5 different concentrations.
To each of Groups 1, 2, 3 and 4 were added 100 μl of magnesium chloride(40 mM) dissolved in 40 mM Tris-HCl buffer(pH 6.0) and 100μ of the enzyme source. Then, 50μ of potassium chloride(50 mM) and 50 μl of ammonium chloride(6 mM) dissolved in 40 mM Tris-HCl buffer(pH 6.0) were added to all groups except for Group 1.
10 μl of dimethylsulfoxide was added to each of Groups 1 and 2; and to Group 3 was added 10 μl of the solution in which the compound prepared in Example was dissolved in dimethylsulfoxide at 5 different concentrations(n=5×2). To Group 4, 10 μl of the solution prepared by dissolving omeprazole in dimethylsulfoxide at 5 different concentrations(37.6, 21.4, 12.2, 7.0 and 4.0 μM) was added(n=5×2). 40 mM Tris-HCl buffer(pH=6.0) was added thereto so as to make the total volume 400 μl.
Thereafter, the test tubes of each Group were placed at 37° C. for 30 minutes for the preincubation. 100 μl of ATP solution (6.6 mM) was added until the reaction volume became 500 μl. After the reaction was carried out at 37° C. for 30 minutes, 25% cold trichloroacetic acid was added to terminate the enzyme reaction. The released inorganic phosphate was measured by an automatic analyzer(Express 550, Corning).
The difference between Group 1 and Group 2 represents the proton pump activity activated by K^+ only. The inhibition percentages of Groups 3 and 4 were calculated from Litchfield-wilcoxon equation[see, e.g., J. pharmacol. Exp. Ther., 96, 99(1949)]. The concentrations of the test compounds which inhibit 50% of the proton pump activity are represented as IC50 in Table 1.

Row | SMILES | Effect ratio
1 | Cc1cc(F)ccc1Nc1nc2c(c(N3CCc4ccccc4C3)n1)CCCC2.Cl [Example 48, 2-(2-methyl-4-fluorophenylamino)-4-(1,2,3,4-tetrahydroisoquinolin-2-yl)-5,6,7,8-tetrahydroquinazoline hydrochloride] | ~ 1.97
2 | Cl.Fc1ccc(Nc2nc3c(c(N4CCc5ccccc5C4)n2)CCCC3)cc1 [Example 49, 2-(4-fluorophenylamino)-4-(1,2,3,4-tetrahydroisoquinolin-2-yl)-5,6,7,8-tetrahydroquinazoline hydrochloride] | ~ 1.13
3 | CN(c1ccccc1)c1nc2c(c(N3CCc4ccccc4C3)n1)CCCC2.Cl [Example 50, 2-(N-methylphenylamino)-4-(1,2,3,4-tetrahydroisoquinolin-2-yl)-5,6,7,8-tetrahydroquinazoline hydrochloride] | ~ 0.70
4 | Cc1ccccc1Nc1nc2c(c(N3CCc4ccccc4C3)n1)CCCC2.Cl [Example 51, 2-(2-methylphenylamino)-4-(1,2,3,4-tetrahydroisoquinolin-2-yl)-5,6,7,8-tetrahydroquinazoline hydrochloride] | 7.05
5 | Cc1cc(N2CCc3ccsc3C2C)nc(Nc2ccc(F)cc2C)n1.Cl (centres unmarked) [Example 52, 6-methyl-2-(2-methyl-4-fluorophenylamino)-4-(7-methyl-4,5,6,7-tetrahydrothieno[2,3-c]pyridin-6-yl)pyrimidine hydrochloride] | 21.11
6 | Cc1cc(N2CCc3ccsc3C2C)nc(Nc2ccc(F)cc2)n1.Cl (centres unmarked) [Example 53, 6-methyl-4-(7-methyl-4,5,6,7-tetrahydrothieno[2,3-c]pyridin-6-yl)-2-(4-fluorophenylamino)pyrimidine hydrochloride] | 5.38
7 | Cc1cc(N2CCc3ccsc3C2C)nc(N(C)c2ccccc2)n1.Cl (centres unmarked) [Example 54, 6-methyl-2-(N-methylphenylamino)-4-(7-methyl-4,5,6,7-tetrahydrothieno[2,3-c]pyridin-6-yl)pyrimidine hydrochloride] | 0.49
8 | Cc1cc(F)ccc1Nc1nc(C)c(C)c(N2CCc3ccsc3C2C)n1.Cl (centres unmarked) [Example 55, 5,6-dimethyl-2-(2-methyl-4-fluorophenylamino)-4-(7-methyl-4,5,6,7-tetrahydrothieno[2,3-c]pyridin-6-yl)pyrimidine hydrochloride] | 4.80
9 | Cc1cc(Nc2ccc(F)cc2C)nc(N2CCc3ccccc3C2C)n1.Cl (centres unmarked) [Example 57, 6-methyl-4-(2-methyl-4-fluorophenylamino)-2-(1-methyl-1,2,3,4-tetrahydroisoquinolin-2-yl)pyrimidine hydrochloride] | 3.50
10 | Cc1cc(Nc2ccc(F)cc2)nc(N2CCc3ccccc3C2C)n1.Cl (centres unmarked) [Example 58, 6-methyl-4-(4-fluorophenylamino)-2-(1-methyl-1,2,3,4-tetrahydroisoquinolin-2-yl)pyrimidine hydrochloride] | < 0.45
11 | Cc1cc(Nc2ccc(F)cc2C)nc(N2CCc3ccsc3C2C)n1.Cl (centres unmarked) [Example 59, 6-methyl-4-(2-methyl-4-fluorophenylamino)-2-(7-methyl-4,5,6,7-tetrahydrothieno[2,3-c]pyridin-6-yl)pyrimidine hydrochloride] | ~ 0.60
12 | Cc1cc(Nc2ccc(F)cc2)nc(N2CCc3ccsc3C2C)n1.Cl (centres unmarked) [Example 60, 6-methyl-4-(4-fluorophenylamino)-2-(7-methyl-4,5,6,7-tetrahydrothieno[2,3-c]pyridin-6-yl)pyrimidine hydrochloride] | ~ 0.51
13 | CCc1cc(Nc2ccc(F)cc2C)nc(N2CCc3ccccc3C2C)n1.Cl (centres unmarked) [Example 61, 6-Ethyl-4-(2-methyl-4-fluorophenylamino)-2-(1-methyl-1,2,3,4-tetrahydroisoquinolin-2-yl)pyrimidine hydrochloride] | ~ 0.60
14 | CCc1cc(Nc2ccc(F)cc2C)nc(N2CCc3ccccc3C2)n1.Cl [Example 62, 6-ethyl-4-(2-methyl-4-fluorophenylamino)-2-(1,2,3,4-tetrahydroisoquinolin-2-yl)pyrimidine hydrochloride] | < 0.71
15 | CCc1cc(Nc2ccc(F)cc2)nc(N2CCc3ccccc3C2)n1.Cl [Example 63, 6-ethyl-4-(4-fluorophenylamino)-2-(1,2,3,4-tetrahydroisoquinolin-2-yl)pyrimidine hydrochloride] | ~ 1.18
16 | CCc1cc(N(C)c2ccccc2)nc(N2CCc3ccccc3C2)n1.Cl [Example 64, 6-ethyl-4-(N-methylphenylamino)-2-(1,2,3,4-tetrahydroisoquinolin-2-yl)pyrimidine hydrochloride] | ~ 1.42
17 | Cc1cc(F)ccc1Nc1nc(N2CCc3ccccc3C2C)nc(C)c1C.Cl (centres unmarked) [Example 65, 5,6-dimethyl-4-(2-methyl-4-fluorophenylamino)-2-(1-methyl-1,2,3,4-tetrahydroisoquinolin-2-yl)pyrimidine hydrochloride] | 6.04
18 | Cc1cc(F)ccc1Nc1nc(N2CCc3ccccc3[C@H]2C)nc(C)c1C.Cl [Example 66, (R)-5,6-dimethyl-4-(2-methyl-4-fluorophenylamino)-2-(1-methyl-1,2,3,4-tetrahydroisoquinolin-2-yl)pyrimidine hydrochloride] | 6.40
19 | Cc1cc(F)ccc1Nc1nc(N2CCc3ccccc3[C@@H]2C)nc(C)c1C.Cl [Example 67, (S)-5,6-dimethyl-4-(2-methyl-4-fluorophenylamino)-2-(1-methyl-1,2,3,4-tetrahydroisoquinolin-2-yl)pyrimidine hydrochloride] | 4.50
20 | Cc1nc(N2CCc3ccccc3C2C)nc(Nc2ccc(F)cc2)c1C.Cl (centres unmarked) [Example 68, 5,6-dimethyl-4-(4-fluorophenylamino)-2-(1-methyl-1,2,3,4-tetrahydroisoquinolin-2-yl)pyrimidine hydrochloride] | 1.86
21 | Cc1nc(N2CCc3ccccc3[C@H]2C)nc(Nc2ccc(F)cc2)c1C.Cl [Example 69, (R)-5,6-dimethyl-4-(4-fluorophenylamino)-2-(1-methyl-1,2,3,4-tetrahydroisoquinolin-2-yl)pyrimidine hydrochloride] | 2.00
22 | Cc1nc(N2CCc3ccccc3[C@@H]2C)nc(Nc2ccc(F)cc2)c1C.Cl [Example 70, (S)-5,6-dimethyl-4-(4-fluorophenylamino)-2-(1-methyl-1,2,3,4-tetrahydroisoquinolin-2-yl)pyrimidine hydrochloride] | 1.70
23 | Cc1cc(F)ccc1Nc1nc(N2CCc3ccccc3C2)nc(C)c1C.Cl [Example 74, 5,6-dimethyl-4-(2-methyl-4-fluorophenylamino)-2-(1,2,3,4-tetrahydroisoquinolin-2-yl)pyrimidine hydrochloride] | 22.00
24 | Cc1nc(N2CCc3ccccc3C2)nc(Nc2ccc(F)cc2)c1C.Cl [Example 75, 5,6-dimethyl-4-(4-fluorophenylamino)-2-(1,2,3,4-tetrahydroisoquinolin-2-yl)pyrimidine hydrochloride] | 5.89
25 | Cc1cc(F)ccc1Nc1nc(N2CCc3ccsc3C2C)nc(C)c1C.Cl (centres unmarked) [Example 77, 5,6-dimethyl-4-(2-methyl-4-fluorophenylamino)-2-(7-methyl-4,5,6,7-tetrahydrothieno[2,3-c]pyridin-6-yl)pyrimidine hydrochloride] | 3.16
26 | Cc1nc(N2CCc3ccsc3C2C)nc(Nc2ccc(F)cc2)c1C.Cl (centres unmarked) [Example 78, 5,6-dimethyl-2-(7-methyl-4,5,6,7-tetrahydrothieno[2,3-c]pyridin-6-yl)-4-(4-fluorophenylamino)pyrimidine hydrochloride] | 1.35
27 | Cc1cc(F)ccc1Nc1nc(N2CCc3ccccc3C2C)nc2c1CCC2 (centres unmarked) [Example 81, hydrochloride] | 15.82
28 | Cc1cc(F)ccc1Nc1nc(N2CCc3ccccc3C2C)nc2c1CCCC2.Cl (centres unmarked) [Example 82, 4-(2-Methyl-4-fluorophenylamino)-2-(1-methyl-1,2,3,4-tetrahydroisoquinolin-2-yl)-5,6,7,8-tetrahydroquinazoline hydrochloride] | 9.40
29 | Cc1cc(F)ccc1Nc1nc(N2CCc3ccccc3C2)nc2c1CCCC2.Cl [Example 83, 4-(2-methyl-4-fluorophenylamino)-2-(1,2,3,4-tetrahydroisoquinolin-2-yl)-5,6,7,8-tetrahydroquinazoline hydrochloride] | 5.34

Where a name gives a salt, the structure may show the parent alone.
